Inconclusive means that the source gave no clear call. Such entries were picked first, then a sample of the others. Where the call is inconclusive, the potency comes from a doubtful curve fit. Calls of active or inactive are those of the source. Calls come from the whole dose curve; as a rule, active = well fitted inhibition curve with a large enough effect; inconclusive = small, poorly fitted or top-dose-only effect, or effect the other way; inactive = flat fitted curve, though single readings scatter.
Each compound was assayed against Menin (Homo sapiens) (UniProt O00255) (assay: Confirmation of Inhibitors Targeting the Menin-MLL Interaction in MLL Related Leukemias: Confirmation in an HTRF (commercial TR-FRET) Assay using His-tagged menin and biotin-labeled MLL peptide). Conditions: His-menin / biotin-MLL peptide binding.
Method in brief: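 Compounds were incubated 1 hr at ambient with a preformed His6-menin (200 nM)/biotinylated MLL-w.t. peptide (80 nM) complex in Tris pH 7.5 buffer; anti-His Eu-cryptate (3.5 nM) and SA-XL665 (10 nM) added, TR-FRET read after 1h.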
Potency is the fitted concentration of half-maximal effect.

Protein sequences, listed by entry. Tags and fused reporters are not part of them.
UniProt O00255, whole entry, looked up: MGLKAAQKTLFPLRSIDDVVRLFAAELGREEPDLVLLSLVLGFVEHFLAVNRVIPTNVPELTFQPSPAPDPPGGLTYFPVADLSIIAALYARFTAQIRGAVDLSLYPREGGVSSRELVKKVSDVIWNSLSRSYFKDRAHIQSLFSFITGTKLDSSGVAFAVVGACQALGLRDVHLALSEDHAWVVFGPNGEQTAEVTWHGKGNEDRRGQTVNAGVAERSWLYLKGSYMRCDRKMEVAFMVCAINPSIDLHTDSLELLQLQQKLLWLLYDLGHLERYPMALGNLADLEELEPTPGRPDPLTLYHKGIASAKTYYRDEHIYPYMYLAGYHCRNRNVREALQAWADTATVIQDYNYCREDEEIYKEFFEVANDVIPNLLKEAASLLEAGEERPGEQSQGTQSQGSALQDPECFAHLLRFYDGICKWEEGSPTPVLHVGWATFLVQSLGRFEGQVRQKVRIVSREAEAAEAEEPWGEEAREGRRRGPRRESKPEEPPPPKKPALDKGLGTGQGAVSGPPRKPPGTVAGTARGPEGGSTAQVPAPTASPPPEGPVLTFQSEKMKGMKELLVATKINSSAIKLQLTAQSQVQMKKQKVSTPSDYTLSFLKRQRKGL

Compound | Potency
O=C(Nc1ccc2ccccc2c1)c1cn(-c2ccccc2)nc1-c1cccs1 | inconclusive: 631 µM [inhibitor, partial curve]
COc1ccc(C2Nc3ccc4ccccc4c3-c3c2c(=O)oc2ccccc32)cc1 (stereo not given) | inconclusive: 70.7 µM [inhibitor, partial curve]
COc1ccccc1C(=O)Nc1ccnn1C1CCN(CC2CC=CCC2)CC1 (stereo not given) | inconclusive: 631 µM [inhibitor, partial curve]
COC(CSc1nc(N)c2c3c(sc2n1)CN(C)CC3)OC | inactive
COc1ccc(-c2cc(=O)c3c(O)cc(O)c(-c4cc(-c5cc(=O)c6c(O)cc(O)cc6o5)ccc4OC)c3o2)cc1 | inconclusive: 398 µM [inhibitor, partial curve]
Cc1ccc(-c2csc(NC(=O)c3ccc(S(=O)(=O)N4CCc5ccccc54)cc3)n2)cc1 | inconclusive: 63.1 µM [inhibitor, partial curve]
O=C(Nc1nccs1)C(Br)C(Br)c1ccccc1 (stereo not given) | inactive
CC(Sc1nnc(Nc2ccccc2)s1)C(=O)Nc1nc(-c2ccccc2)cs1 (stereo not given) | inconclusive: 79.4 µM [inhibitor, partial curve]
CC(=O)NC1C(=O)N(CCN2CCOCC2)c2ccc(Cl)cc21 (stereo not given) | inconclusive: 99.9 µM [inhibitor, partial curve, poor fit]
Cc1ccccc1-c1n[nH]c(=S)n1C | inactive
COc1ccccc1NS(=O)(=O)c1cc(N2Cc3ccccc3C2=N)ccc1N1CCOCC1 | active: 89.1 µM
COc1ccc(-c2cc(=O)c3c(O)cc(O)c(-c4cc(-c5cc(=O)c6c(O)cc(OC)cc6o5)ccc4OC)c3o2)cc1 | inconclusive: 56.2 µM [inhibitor, partial curve]
CCN(CCn1cccn1)Cc1ccccc1OCC(O)CN1CCc2ccccc2C1 (stereo not given) | inactive
O=C1C(SCCO)=C(SCCO)C(=O)c2ccccc21 | active: 39.8 µM

Copied from the listing, 2 compounds:
Compound | Potency
O=C(Nc1nccs1)C(Br)C(Br)c1ccccc1 (stereo not given) | inactive
CC(Sc1nnc(Nc2ccccc2)s1)C(=O)Nc1nc(-c2ccccc2)cs1 (stereo not given) | inconclusive: 79.4 µM [inhibitor, partial curve]

Source: PubChem BioAssay AID2778 (National Center for Advancing Translational Sciences (NCATS), 2010)
